Experimental data: the supplement of paper PMC4604168 (melanoma cell lines)
Some of the results follow. Repeats are few or missing, and single values can be far off.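 Cells were imaged in 1,536-well plates, and nuclei stained with an antibody against cleaved PARP were counted against all DNA-stained nuclei to give the apoptosis fraction. Screening doses were chosen to leave most cells alive, and resting and induced cleaved-PARP levels differ strongly between cell lines.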

test system: LB2518-MEL; experiment: cleaved PARP positive nuclei fraction relative to DMSO control; melanoma cells; higher = more apoptosis; conditions: library dose: low library concentration; 72 h

Point of comparison: Cn1nnc2c(C(N)=O)ncn2c1=O [temozolomide] + COc1ccc2c(c1)CCC1C2CCC2(C)C(NCCCCCCN3C(=O)C=CC3=O)CCC12 [U73122] (first compound 2 µM, partner dose 0.4 µM), “cleaved PARP positive nuclei fraction” value 88.9%. Against it:
- CC(C)(C)c1cnc(CSc2cnc(NC(=O)C3CCNCC3)s2)o1 + Oc1cc(-c2nc(-c3ccccc3)[nH]c2-c2ccncc2)ccc1Cl [L779450] (first compound 0.01 µM, partner dose 0.2 µM) — lower, 82.5%
- Cc1nc(Nc2ncc(C(=O)Nc3c(C)cccc3Cl)s2)cc(N2CCN(CCO)CC2)n1 [dasatanib] + COC(=O)c1sccc1S(=O)(=O)Nc1ccc(Nc2ccccc2)cc1OC [GSK0660] (first compound 0.004 µM, partner dose 1 µM) — higher, 170%
- C#Cc1cccc(Nc2ncnc3cc(OCCOC)c(OCCOC)cc23)c1 [erlotinib] + O=C(O)C(=O)Nc1sc2c(c1C(=O)O)CCNC2 [TCS401] (first compound 0.8 µM, partner dose 1.66667 µM) — higher, 164%
- Cn1c(Nc2ccc(C(F)(F)F)cc2)nc2cc(Oc3ccnc(-c4ncc(C(F)(F)F)[nH]4)c3)ccc21 + CCCCCCCCCCCC1=C(O)C(=O)C=C(O)C1=O [Embelin] (first compound 0.08 µM, partner dose 1.2 µM) — higher, 151%
- Cn1cncc1[C@@](N)(c1ccc(Cl)cc1)c1ccc2c(c1)c(-c1cccc(Cl)c1)cc(=O)n2C [tipifarnib] + COc1cc2ncnc(Nc3ccc(Oc4ccccc4)cc3)c2cc1OC [SrcI1] (first compound 0.01 µM, partner dose 2 µM) — higher, 94.5%
- C#Cc1cccc(Nc2ncnc3cc(OCCOC)c(OCCOC)cc23)c1 [erlotinib] + COc1cc2ncnc(Nc3ccc(Oc4ccccc4)cc3)c2cc1OC [SrcI1] (first compound 0.8 µM, partner dose 2 µM) — lower, 73.6%
- Nc1cccc2c1CN(C1CCC(=O)NC1=O)C2=O (stereo not drawn) [lenalidomide] + Cn1cc(/C=C2\C(=O)Nc3cccnc32)c2ccccc21 [GW441756] (first compound 1 µM, partner dose 0.4 µM) — higher, 154%
- Cc1nc(Nc2ncc(C(=O)Nc3c(C)cccc3Cl)s2)cc(N2CCN(CCO)CC2)n1 [dasatanib] + c1cc(-c2cnn3cc(-c4ccc(OCCN5CCCCC5)cc4)cnc23)ccn1 [Dorsomorphin] (first compound 0.004 µM, partner dose 0.4 µM) — higher, 119%
- Cn1cncc1[C@@](N)(c1ccc(Cl)cc1)c1ccc2c(c1)c(-c1cccc(Cl)c1)cc(=O)n2C [tipifarnib] + O=C(O)C(=O)Nc1sc2c(c1C(=O)O)CCNC2 [TCS401] (first compound 0.01 µM, partner dose 1.66667 µM) — lower, 86.1%
- Cn1c(Nc2ccc(C(F)(F)F)cc2)nc2cc(Oc3ccnc(-c4ncc(C(F)(F)F)[nH]4)c3)ccc21 + O=C(Nc1ccccc1)c1cc([N+](=O)[O-])ccc1Cl [GW9662] (first compound 0.08 µM, partner dose 2 µM) — higher, 135%
- Cn1cncc1[C@@](N)(c1ccc(Cl)cc1)c1ccc2c(c1)c(-c1cccc(Cl)c1)cc(=O)n2C [tipifarnib] + Oc1nc(-c2ccc(C(F)(F)F)cc2)nc2c1CSCC2 [XAV939] (first compound 0.01 µM, partner dose 2 µM) — higher, 202%

test system: LOXIMVI; experiment: as above; conditions: library dose: low library concentration; 72 h

Point of comparison: Cc1ccc(NC(=O)c2cccc(N(C)C)c2)cc1NC(=O)c1ccc(O)cc1 + N#Cc1c(O)c2c(-c3ccc(-c4ccccc4O)cc3)csc2[nH]c1=O [A769662] (first compound 2 µM, partner dose 2 µM), “cleaved PARP positive nuclei fraction” value 17%. Against it:
- OCCn1cc(-c2cnc3nnn(Cc4ccc5ncccc5c4)c3n2)cn1 + Oc1cc(-c2nc(-c3ccccc3)[nH]c2-c2ccncc2)ccc1Cl [L779450] (first compound 1 µM, partner dose 0.2 µM) — higher, 17.7%
- CO[C@@H]1[C@H](N(C)C(=O)c2ccccc2)C[C@H]2O[C@]1(C)n1c3ccccc3c3c4c(c5c6ccccc6n2c5c31)C(=O)NC4 [Midostaurin] + O=C(Nc1ccccc1)c1cc([N+](=O)[O-])ccc1Cl [GW9662] (first compound 0.08 µM, partner dose 2 µM) — higher, 72.5%
- CC1(C)NC(=O)N(c2ccc([N+](=O)[O-])c(C(F)(F)F)c2)C1=O [nilutamide] + COC(=O)c1sccc1S(=O)(=O)Nc1ccc(Nc2ccccc2)cc1OC [GSK0660] (first compound 1 µM, partner dose 1 µM) — higher, 59.3%
- Cc1nc(Nc2ncc(C(=O)Nc3c(C)cccc3Cl)s2)cc(N2CCN(CCO)CC2)n1 [dasatanib] + Cc1cc([N+](=O)[O-])ccc1NS(=O)(=O)c1cc(Cl)ccc1Cl [FH535] (first compound 0.004 µM, partner dose 1 µM) — higher, 181%
- C[C@@H]1CCN(C(=O)CC#N)C[C@@H]1N(C)c1ncnc2[nH]ccc12 + O=C(Nc1ccccc1)c1cc([N+](=O)[O-])ccc1Cl [GW9662] (first compound 1 µM, partner dose 2 µM) — higher, 52.7%
- C=CCn1c(=O)c2cnc(Nc3ccc(N4CCN(C)CC4)cc3)nc2n1-c1cccc(C(C)(C)O)n1 + O=c1cc(-c2cccc3c2Sc2ccccc2S3)oc(N2CCOCC2)c1 [KU55933] (first compound 0.02 µM, partner dose 1 µM) — higher, 49.7%
- Cc1cc(N2CCOCC2)cc2[nH]c(-c3c(NC[C@@H](O)c4cccc(Cl)c4)cc[nH]c3=O)nc12 + O=C(O)C(=O)Nc1sc2c(c1C(=O)O)CCNC2 [TCS401] (first compound 0.2 µM, partner dose 1.66667 µM) — higher, 45.9%
- C=CCn1c(=O)c2cnc(Nc3ccc(N4CCN(C)CC4)cc3)nc2n1-c1cccc(C(C)(C)O)n1 + CCN(CC)CCCCNc1ncc2cc(-c3cc(OC)cc(OC)c3)c(NC(=O)NC(C)(C)C)nc2n1 [PD173074] (first compound 0.02 µM, partner dose 0.1 µM) — higher, 36.8%
- Cc1cc(N2CCOCC2)cc2[nH]c(-c3c(NC[C@@H](O)c4cccc(Cl)c4)cc[nH]c3=O)nc12 + O=c1cc(-c2cccc3c2Sc2ccccc2S3)oc(N2CCOCC2)c1 [KU55933] (first compound 0.2 µM, partner dose 1 µM) — higher, 57%
- C#Cc1cccc(Nc2ncnc3cc(OCCOC)c(OCCOC)cc23)c1 [erlotinib] + O=c1cc(-c2cccc3c2Sc2ccccc2S3)oc(N2CCOCC2)c1 [KU55933] (first compound 0.8 µM, partner dose 1 µM) — higher, 28.2%
- Cn1c(Nc2ccc(C(F)(F)F)cc2)nc2cc(Oc3ccnc(-c4ncc(C(F)(F)F)[nH]4)c3)ccc21 + O=C1NC(=O)/C(=C/c2ccc(-c3ccc(F)cc3O)o2)S1 [AS252424] (first compound 0.08 µM, partner dose 1 µM) — higher, 191%
- NC(=O)Nc1cc(-c2cccc(F)c2)sc1C(=O)N[C@H]1CCCNC1 + CCCCCCCCCCCC1=C(O)C(=O)C=C(O)C1=O [Embelin] (first compound 0.02 µM, partner dose 1.2 µM) — higher, 29.4%
- C=CCn1c(=O)c2cnc(Nc3ccc(N4CCN(C)CC4)cc3)nc2n1-c1cccc(C(C)(C)O)n1 + COc1cc2ncnc(Nc3ccc(Oc4ccccc4)cc3)c2cc1OC [SrcI1] (first compound 0.02 µM, partner dose 2 µM) — higher, 34.9%
- Cn1c(Nc2ccc(C(F)(F)F)cc2)nc2cc(Oc3ccnc(-c4ncc(C(F)(F)F)[nH]4)c3)ccc21 + N#Cc1c(O)c2c(-c3ccc(-c4ccccc4O)cc3)csc2[nH]c1=O [A769662] (first compound 0.08 µM, partner dose 2 µM) — higher, 38.1%
- Cn1nnc2c(C(N)=O)ncn2c1=O [temozolomide] + COc1cc(N2CCC(N3CCN(C)CC3)CC2)ccc1Nc1ncc(Cl)c(Nc2ccccc2S(=O)(=O)C(C)C)n1 [NVP-TAE684] (first compound 2 µM, partner dose 0.08 µM) — higher, 55.3%
- O=C(CCCCCCC(=O)Nc1ccccc1)NO [vorinostat] + COc1ccc(COc2ccc(Cc3cnc(N)nc3N)cc2OC)cc1 [GW2580] (first compound 0.08 µM, partner dose 1 µM) — higher, 80.1%
- C#Cc1cccc(Nc2ncnc3cc(OCCOC)c(OCCOC)cc23)c1 [erlotinib] + Oc1cc(-c2nc(-c3ccccc3)[nH]c2-c2ccncc2)ccc1Cl [L779450] (first compound 0.8 µM, partner dose 0.2 µM) — higher, 69.9%
- C#Cc1cccc(Nc2ncnc3cc(OCCOC)c(OCCOC)cc23)c1 [erlotinib] + N#Cc1c(O)c2c(-c3ccc(-c4ccccc4O)cc3)csc2[nH]c1=O [A769662] (first compound 0.8 µM, partner dose 2 µM) — higher, 68.1%
- COCC[n+]1c2c(n(Cc3cnccn3)c1C)C(=O)c1ccccc1C2=O + COc1ccc(-c2ccc3c(N4CCOCC4)nc(N4C[C@@H](C)O[C@@H](C)C4)nc3n2)cc1CO [KU0063794] (first compound 0.0004 µM, partner dose 0.02 µM) — higher, 51.7%
- COc1cc(Nc2ncc(F)c(Nc3ccc4c(n3)NC(=O)C(C)(C)O4)n2)cc(OC)c1OC [Tamatinib] + O=C1NC(=O)/C(=C/c2ccc(-c3ccc(F)cc3O)o2)S1 [AS252424] (first compound 0.4 µM, partner dose 1 µM) — higher, 288%
